Data reported in article PMC12636028 (Journal of the American Chemical Society, 2025).

Experiment: general procedure: Fmoc solid-phase peptide synthesis; Wang resin; PyBOP/DIEA
Details: whole synthesis

Substance | isolated mass (scale 0.128 mmol) [mg] | isolated yield (scale 0.128 mmol) [%] | isolated mass [mg] | isolated yield (scale of the general procedure 0.13 mmol (model tripeptides), 0.128 mmol printed for target) [%]
NO2A-M-Tyr(3-I)-Ahx-KuE | 0.023 | 13 | – | –
NO2A-NMeG-Tyr(3-I)-Ahx-KuE | 0.026 | 15 | – | –
NO2A-NMeM-T-Ahx-KuE | 0.024 | 13 | – | –
NO2A-NMeS-Tyr(3-I)-Ahx-KuE | – | – | 0.028 | 16
NO2A-S-Tyr(3-I)-Ahx-KuE | 0.020 | 11 | – | –
